PubChem BioAssay AID504834 (National Center for Advancing Translational Sciences (NCATS), 2011)
The whole screen tested about 320,000 compounds, of which about 22,000 (6.9%) were called active. Inconclusive means that the source gave no clear call. Such entries were picked first, then a sample of the others. The call rests on the fitted dose curve; in most records, active means well fitted inhibition curve with a large enough effect; inconclusive means small, poorly fitted or top-dose-only effect, or another doubt; inactive means no such curve, though single readings can be large or run the other way. Potencies of inconclusive entries are doubtful fits and often do not repeat.

Experiment: Primary qHTS for delayed death inhibitors of the malarial parasite plastid, 96 hour incubation
Details: P. falciparum luciferase reporter growth; series mostly up to 28.7 µM; activity change, negative = inhibition: at the top concentration
Summary of the method: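 Parasite growth measured via integrated firefly luciferase reporter in P. falciparum. Infected erythrocytes at 2% hematocrit, 0.05% parasitemia final were treated 96 hours at 37 C under 5% CO2, and luminescence was read.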
On the % scale 0 is the no-effect control and ±100 the full control effect; potency means the concentration at half of the fitted maximal effect.

| Structure (SMILES) | Potency | activity change, negative = inhibition |
| --- | --- | --- |
| Cc1cc(/C=C2\C(=N)N3N=C(CC(=O)N4CCOCC4)SC3=NC2=O)c(C)n1-c1ccccc1 | inconclusive: 18.5 µM [inhibitor, single point] |  |
| CCCOc1ccc(CCc2n[nH]c(=S)n2-c2ccccc2)cc1 |  | inactive: 5.37% |
| CCCCn1c(N)c(N(CCC)C(=O)C2CCCC2)c(=O)[nH]c1=O | inconclusive: 14.7 µM [inhibitor, single point] |  |
| CCCCN1/C(=C/c2cccc[n+]2C)Sc2cc(NC(C)=O)ccc21 |  | inactive: 10.9% |
| Cc1ccc2c(c1)c(C)cc(=O)n2CCC(=O)O |  | inactive: 35% |
| CC(=O)N1c2ccc(S(=O)(=O)N3CCC(C(=O)NC4CCCCC4)CC3)cc2CC1C (stereo not drawn) | inconclusive: 18.5 µM [inhibitor, single point] |  |
| Cc1ccc(C2C3=C(CC(C)(C)CC3=O)NC3=C2C(=O)CC(C)(C)C3)o1 | inconclusive: 13.1 µM [inhibitor, partial curve, poor fit] |  |
| CCOc1ccccc1N1CCN(C(=O)c2cc3c(C)cc(C)cc3[nH]2)CC1 | inconclusive: 4.15 µM [inhibitor, partial curve] |  |
| CC(NC(=O)CSc1nc(=O)cc(N)n1CCc1ccccc1)c1ccccc1 (stereo not drawn) | inconclusive: 8.28 µM [inhibitor, partial curve, poor fit] |  |
| O=C(Nc1ccc2[nH]c(=S)sc2c1)Nc1ccccc1F |  | inactive: 118% |
| Clc1ccc2c(NNc3ccccc3Cl)ccnc2c1 | inconclusive: 3.7 µM [inhibitor, partial curve] |  |
| CC(=O)Nc1ccc(S(=O)(=O)n2nc(C)cc2C)cc1 | active: 0.928 µM |  |
| CCc1ccc(N2CC(C(=O)NC3CCCCC3C)CC2=O)cc1 (stereo not drawn) |  | inactive: 37.8% |
| O=C1c2oc3ccc(Cl)cc3c(=O)c2C(c2cccc(Br)c2)N1CCO (stereo not drawn) |  | inactive: 0.659% [at 5.75 µM] |
| CCOC(=O)c1ccc(NC(=O)CSc2nc3ncccc3[nH]2)cc1 | inconclusive: 18.5 µM [inhibitor, single point] |  |
| CCC(C)n1c(SCC(=O)Nc2ccccc2C(F)(F)F)nc2ccsc2c1=O (stereo not drawn) | inconclusive: 16.5 µM [inhibitor, partial curve, poor fit] |  |
| CC1=CC2=NC(=O)/C(=C/c3cccs3)C(=N)N2O1 |  | inactive: 23.3% |
| COc1cccc(C(=O)N2CCN=C2SC)c1 | inconclusive: 2.94 µM [inhibitor, single point] |  |
| CCOC(=O)c1[nH]c2ccc(Cl)cc2c1-c1ccccc1 | inconclusive: 0.185 µM [inhibitor, full curve, poor fit] |  |
| COc1ccc(CCNc2nc(=S)[nH]c3cc(OC)c(OC)cc23)cc1OC | inconclusive: 0.0738 µM [inhibitor, full curve, poor fit] |  |
| O=C(Nc1ccc(Cl)cc1-c1nc2ccccc2s1)c1ccco1 | inconclusive: 16.5 µM [inhibitor, partial curve, poor fit] |  |
| CCOc1cc(C(=O)Nc2ccc(S(=O)(=O)NC3=NCCCCC3)cc2)cc(OCC)c1OCC | inconclusive: 8.28 µM [inhibitor, partial curve] |  |
| COc1ccc(CN(CC(=O)NC2CCCC2)C(=O)CCC(=O)Nc2nccs2)cc1 |  | inactive: -6.08% |
| Cc1cc(-n2cnnn2)ccc1C(C)C |  | inactive: 37.5% |
| CCN(CC)CCN(C)C(=O)c1ccc(OC2CCN(C(=O)C3CC3)CC2)cc1 | inconclusive: 18.5 µM [inhibitor, single point] |  |

Laid out differently: entries from further up.
Structure (SMILES)	Potency	activity change, negative = inhibition
COc1ccc(CN(CC(=O)NC2CCCC2)C(=O)CCC(=O)Nc2nccs2)cc1		inactive: -6.08%
Cc1cc(-n2cnnn2)ccc1C(C)C		inactive: 37.5%
CCN(CC)CCN(C)C(=O)c1ccc(OC2CCN(C(=O)C3CC3)CC2)cc1	inconclusive: 18.5 µM [inhibitor, single point]	

A stretch from further up, for reference:

| Structure (SMILES) | Potency | activity change, negative = inhibition |
| --- | --- | --- |
| CCC(C)n1c(SCC(=O)Nc2ccccc2C(F)(F)F)nc2ccsc2c1=O (stereo not drawn) | inconclusive: 16.5 µM [inhibitor, partial curve, poor fit] |  |
| CC1=CC2=NC(=O)/C(=C/c3cccs3)C(=N)N2O1 |  | inactive: 23.3% |

(continued)

| Structure (SMILES) | Potency | activity change, negative = inhibition |
| --- | --- | --- |
| COCC1CCCN(C(=O)c2cc(COc3ccc4ncccc4c3)on2)C1 (stereo not drawn) | inconclusive: 16.5 µM [inhibitor, single point] |  |
| O=C(CCn1[nH]c(=O)c2ccccc2c1=O)NCCO | inconclusive: 1.85 µM [inhibitor, full curve, poor fit] |  |
| Cc1cc(C)n(C(=O)c2ccc(NC(=O)C3CC3)cc2)n1 |  | inactive: 15.6% |
| O=C(O)[C@H](Cc1ccccc1)NC(=O)N1CCN(c2ccccc2)CC1 |  | inactive: 18.7% |
| CN(C(=O)c1ccccc1-c1ncc[nH]1)C1CCCN(Cc2ccccc2F)C1 (stereo not drawn) |  | inactive: 7.12% |
| Cc1ccc2oc(=O)c3cc(C(=O)NCCN4CCN(C)CC4)sc3c2c1 |  | inactive: 56.2% |
| CC(=O)c1cccc(NC(=S)N2CCN(S(=O)(=O)c3ccc(F)cc3)CC2)c1 | inconclusive: 18.5 µM [inhibitor, single point] |  |
| Cc1cc(-n2c(SCC(=O)Nc3ccc(Br)cc3)nc3n[nH]c(C)c3c2=N)ccc1Cl |  | inactive: 43.8% |
| O=C(CNC(=O)OCc1ccccc1)Nc1ccc(Br)cc1C(=O)c1ccccc1 | inconclusive: 0.465 µM [inhibitor, full curve, poor fit] |  |
| CCOc1ccc(S(=O)(=O)N2CC(=O)Nc3ccccc32)cc1C#N | inconclusive: 18.5 µM [inhibitor, partial curve, poor fit] |  |
| Cc1cnc(NC(=O)CCc2ccccc2)s1 |  | inactive: 6.06% |
| Fc1ccc(NC(=S)NC2CC3CCCC(C2)N3Cc2cccs2)cc1 (stereo not drawn) |  | inactive: 1.55% |
| COc1ccccc1NC(=O)Nc1cccc(NC(C)=O)c1 |  | inactive: 0% |
| COC(=O)c1sc2nc(SCc3ccccc3C)n(N)c(=O)c2c1C | inconclusive: 0.928 µM [inhibitor, full curve] |  |
| Oc1ccc(Br)cc1CNc1nccs1 | inconclusive: 18.5 µM [inhibitor, single point] |  |
| CN(CCc1ccccn1)C(=S)Nc1ccc(Cl)cc1Cl | inconclusive: 13.1 µM [inhibitor, single point] |  |
| COc1cc(C(C)=O)ccc1OCC(O)CNCC(O)c1ccccc1 (stereo not drawn) |  | inactive: -7.95% |
| N#Cc1nn(-c2c(Cl)cc(C(F)(F)F)cc2Cl)c(N)c1S(=O)C(F)(F)F (stereo not drawn) |  | inactive: -22.8% |
| O=C(Nc1ccccc1)Nc1cc(S(=O)(=O)N2CCOCC2)ccc1N1CCCC1 | inconclusive: 18.5 µM [inhibitor, single point] |  |
| O=C1/C(=C/c2cccs2)SC(=S)N1CC(=O)N1CCCCC1CCO (stereo not drawn) |  | inactive: 15.9% |
| CCC(C)NC(=O)c1ccc(CS(=O)(=O)c2ccc(OC)cc2)o1 (stereo not drawn) | inconclusive: 14.7 µM [inhibitor, single point] |  |
| O=C(CNC(=O)C1COc2ccccc2O1)N/N=C\c1cccc(O)c1 (stereo not drawn) | inconclusive: 0.0047 µM [inhibitor, full curve, poor fit] |  |
| Cc1ccc(S(=O)(=O)N(C)C)cc1NC(=S)NC1CCCC(C)C1C (stereo not drawn) | inconclusive: 14.7 µM [inhibitor, partial curve, poor fit] |  |
| Cc1cc2c(n1-c1ccc(C(N)=O)cc1)CC(C)(C)CC2=O | inconclusive: 11.7 µM [inhibitor, single point] |  |
| COc1ccc(C(C)=O)cc1COc1ccc([N+](=O)[O-])c(C)c1 |  | inactive: 21.7% [at 5.75 µM] |

| Structure (SMILES) | Potency | activity change, negative = inhibition |
| --- | --- | --- |
| COc1ccc(C)cc1NC(=O)CSc1ccc(Cl)cc1 | inconclusive: 6.57 µM [inhibitor, partial curve, poor fit] |  |
| CCCc1ccc(-c2cc(C(=O)N3CCN(c4ccccn4)CC3)c3ccccc3n2)cc1 | active: 5.22 µM |  |
| Cc1ccc2[nH]c(=O)c(-c3noc(CC(C)C)n3)cc2c1 | active: 5.22 µM |  |
| CCN(CC)S(=O)(=O)c1ccc(NCCc2ccccn2)nc1 |  | inactive: 12.3% |
| CCCCCn1c(=N)n(CC(O)COc2ccccc2OC)c2ccccc21 (stereo not drawn) | inconclusive: 3.29 µM [inhibitor, full curve, poor fit] |  |
| CC(C)CN1CCNC(=O)C1CC(=O)NCCCN1CCCc2ccccc21 (stereo not drawn) | inconclusive: 18.5 µM [inhibitor, single point] |  |
| CCc1nnc(NC(=O)CSc2nnc(C3CCCCC3)n2-c2cccc(Cl)c2)s1 | inconclusive: 18.5 µM [inhibitor, single point] |  |
| CSc1ccccc1C(=O)C1CCCN(C(=O)CCc2cccnc2)C1 (stereo not drawn) | inconclusive: 18.5 µM [inhibitor, single point] |  |
| CCOC(=O)c1oc2ccccc2c1NC(=O)c1ccc(Cl)s1 |  | inactive: 2.43% |
| CN(Cc1ccc(C(F)(F)F)cc1)C(=O)C1CCC(=O)N(C2CC2)C1 (stereo not drawn) |  | inactive: -9.45% |
| COc1ccc(N2Cc3cccc(C(=O)NC(C)CCc4ccco4)c3C2=O)cc1 (stereo not drawn) | active: 11.7 µM |  |
| Cc1ccc(Cn2nc(C)c(NC(=O)c3cc(-c4ccco4)on3)c2C)cc1 | inconclusive: 13.1 µM [inhibitor, single point] |  |
| O=C(CSc1ccc(-c2cccnc2)nn1)Nc1ccc(Br)cc1 | inconclusive: 11.7 µM [inhibitor, partial curve, poor fit] |  |
| CCCCC/C=C\C/C=C\C/C=C\CCCCC(=O)O | inactive |  |
| COc1ccc(CN(C)C(C)C(=O)Nc2ccc(S(=O)(=O)N3CCOCC3)cc2)c(OC)c1 (stereo not drawn) | inconclusive: 0.828 µM [inhibitor, partial curve, poor fit] |  |
| CC(C)(C)c1ccc(C(=O)Nc2ncn[nH]2)cc1 |  | inactive: 36.4% |
| CC(C)c1ccc2oc(=O)cc(CN3CCN(c4ccccc4)CC3)c2c1 | inconclusive: 11.7 µM [inhibitor, single point] |  |
| COc1ccc(OCC(O)Cn2c(Nc3cccc(C)c3)nc3c2c(=O)n(C)c(=O)n3C)cc1 (stereo not drawn) | active: 3.29 µM |  |
| Cc1cccc(-n2c(/C=C/c3ccccn3)nc3ccccc3c2=O)c1 | inconclusive: 14.7 µM [inhibitor, partial curve, poor fit] |  |
| COc1cc(OC)cc(N(C(=O)CNC(=O)c2cccs2)C(C(=O)NCC2CCCO2)c2ccc(OC)c(OC)c2)c1 (stereo not drawn) | inconclusive: 0.928 µM [inhibitor, full curve] |  |
| O=C(NCCc1ccccc1)C1COc2ccccc2O1 (stereo not drawn) |  | inactive: 23.3% |
| CCOC(=O)C(Cc1ccccc1)C(=O)Nc1cccc(C)c1 (stereo not drawn) | inconclusive: 18.5 µM [inhibitor, single point] |  |
| CCOc1ccc(S(=O)(=O)N2CCCCC2)cc1NC(=O)Cc1cccs1 | inconclusive: 11.7 µM [inhibitor, partial curve] |  |
